± gives the standard deviation of the averaged measurements. The reference is the same well before dosing, and untreated signal decays as well.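 Fibroblast labels name human fibroblasts: mostly primary ones from tissues such as uterus (C12385, HUF), lung (H6013), bone (Hs27A), adrenal (HADF) and skin (WS1), plus mammary HMF and breast cancer-associated Hs343T. The cancer cells are basal-like or mesenchymal-like triple-negative breast cancer lines. The paper calls a changed response a hit when it shifts by more than 3x the replicate standard deviation. The tissue of the other fibroblasts is not given here.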
Test system: MDAMB436
Assay: relative JC-1 red fluorescence (viability) vs pre-drug, coculture with fibroblast (fraction); higher = more viable cancer cells
Experimental: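 JC-1 labelled TNBC cells cocultured 1:1 (1,500 cells each) with CellTrace Violet stained primary or stromal fibroblasts in 384-well plates in FluoroBrite medium, treated with one of 42 anticancer drugs at 0.1, 1, 10 or 100 uM. JC-1 red fluorescence (mitochondrial integrity in cancer cells only) was read by plate reader every 8 h for 72 h. Values are normalised to each well's pre-drug value. The stock of one drug was tenfold lower, so its dose labels may be too high.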

COc1cc([C@@H]2c3cc4c(cc3[C@@H](O[C@@H]3O[C@@H]5CO[C@@H](C)O[C@H]5[C@H](O)[C@H]3O)[C@H]3COC(=O)[C@H]23)OCO4)cc(OC)c1O [Etoposide]
relative JC-1 red fluorescence
Conditions | 8 h | 16 h | 24 h | 32 h | 40 h | 48 h | 56 h | 64 h | 72 h
0.1 µM, coculture fibroblast: C12385 | 0.769 ± 0.021 | 0.71 ± 0.041 | 0.699 ± 0.049 | 0.625 ± 0.05 | 0.588 ± 0.059 | 0.576 ± 0.067 | 0.575 ± 0.079 | 0.566 ± 0.086 | 0.576 ± 0.088
0.1 µM, coculture fibroblast: H6013 | 0.8281 ± 0.0039 | 0.778 ± 0.071 | 0.782 ± 0.075 | 0.769 ± 0.1 | 0.769 ± 0.13 | 0.801 ± 0.14 | 0.767 ± 0.15 | 0.771 ± 0.16 | 0.737 ± 0.17
0.1 µM, coculture fibroblast: H6019 | 0.753 ± 0.052 | 0.715 ± 0.098 | 0.707 ± 0.14 | 0.642 ± 0.16 | 0.626 ± 0.19 | 0.618 ± 0.21 | 0.596 ± 0.22 | 0.579 ± 0.23 | 0.554 ± 0.22
0.1 µM, coculture fibroblast: H6076 | 0.673 ± 0.009 | 0.623 ± 0.0091 | 0.6317 ± 0.0017 | 0.609 ± 0.017 | 0.614 ± 0.015 | 0.591 ± 0.012 | 0.613 ± 0.013 | 0.613 ± 0.024 | 0.614 ± 0.027
0.1 µM, coculture fibroblast: H6231 | 0.766 ± 0.044 | 0.7277 ± 0.0049 | 0.75763 ± 0.00056 | 0.679 ± 0.0065 | 0.666 ± 0.014 | 0.643 ± 0.017 | 0.636 ± 0.028 | 0.613 ± 0.036 | 0.601 ± 0.041
0.1 µM, coculture fibroblast: HADF | 0.7748 ± 0.0059 | 0.7 ± 0.015 | 0.678 ± 0.014 | 0.644 ± 0.01 | 0.639 ± 0.012 | 0.673 ± 0.014 | 0.62 ± 0.016 | 0.617 ± 0.017 | 0.583 ± 0.016
0.1 µM, coculture fibroblast: HCFa | 0.776 ± 0.025 | 0.7216 ± 0.0028 | 0.6939 ± 0.0042 | 0.672 ± 0.011 | 0.662 ± 0.027 | 0.689 ± 0.037 | 0.625 ± 0.032 | 0.623 ± 0.042 | 0.564 ± 0.033
0.1 µM, coculture fibroblast: HCPF | 0.7325 ± 0.0013 | 0.666 ± 0.024 | 0.666 ± 0.033 | 0.607 ± 0.036 | 0.595 ± 0.04 | 0.571 ± 0.047 | 0.554 ± 0.055 | 0.546 ± 0.061 | 0.534 ± 0.064
0.1 µM, coculture fibroblast: HHSteC | 0.785 ± 0.016 | 0.762 ± 0.04 | 0.738 ± 0.053 | 0.709 ± 0.054 | 0.709 ± 0.07 | 0.731 ± 0.076 | 0.678 ± 0.09 | 0.663 ± 0.085 | 0.614 ± 0.082
0.1 µM, coculture fibroblast: HMF | 0.703 ± 0.024 | 0.642 ± 0.025 | 0.634 ± 0.028 | 0.593 ± 0.026 | 0.588 ± 0.027 | 0.56 ± 0.038 | 0.572 ± 0.041 | 0.565 ± 0.045 | 0.572 ± 0.049
0.1 µM, coculture fibroblast: HPFa | 0.903 ± 0.042 | 0.858 ± 0.012 | 0.842 ± 0.016 | 0.805 ± 0.022 | 0.803 ± 0.02 | 0.819 ± 0.016 | 0.7359 ± 0.0031 | 0.71 ± 0.0081 | 0.644 ± 0.0098
0.1 µM, coculture fibroblast: HUF | 0.837 ± 0.049 | 0.769 ± 0.071 | 0.755 ± 0.067 | 0.686 ± 0.071 | 0.641 ± 0.074 | 0.626 ± 0.076 | 0.61 ± 0.076 | 0.614 ± 0.081 | 0.612 ± 0.087
0.1 µM, coculture fibroblast: Hs5 | 0.73 ± 0.031 | 0.699 ± 0.043 | 0.705 ± 0.051 | 0.664 ± 0.053 | 0.665 ± 0.062 | 0.631 ± 0.063 | 0.654 ± 0.078 | 0.629 ± 0.075 | 0.633 ± 0.084
0.1 µM, coculture fibroblast: Hs27A | 0.8 ± 0.025 | 0.743 ± 0.019 | 0.7368 ± 0.0026 | 0.7251 ± 0.0069 | 0.702 ± 0.013 | 0.78 ± 0.018 | 0.691 ± 0.032 | 0.679 ± 0.038 | 0.606 ± 0.041
0.1 µM, coculture fibroblast: Hs343T | 0.761 ± 0.028 | 0.706 ± 0.025 | 0.67 ± 0.013 | 0.622 ± 0.0095 | 0.6059 ± 0.0023 | 0.57 ± 0.013 | 0.5681 ± 0.0044 | 0.56 ± 0.0096 | 0.553 ± 0.012
0.1 µM, coculture fibroblast: WS1 | 0.7822 ± 0.003 | 0.711 ± 0.018 | 0.7 ± 0.014 | 0.631 ± 0.014 | 0.603 ± 0.0027 | 0.586 ± 0.013 | 0.568 ± 0.017 | 0.552 ± 0.028 | 0.547 ± 0.032
1 µM, coculture fibroblast: C12385 | 0.756 ± 0.021 | 0.694 ± 0.027 | 0.678 ± 0.04 | 0.609 ± 0.041 | 0.57 ± 0.048 | 0.558 ± 0.061 | 0.549 ± 0.063 | 0.543 ± 0.076 | 0.551 ± 0.085
1 µM, coculture fibroblast: H6013 | 0.783 ± 0.014 | 0.749 ± 0.027 | 0.746 ± 0.037 | 0.738 ± 0.046 | 0.75 ± 0.05 | 0.792 ± 0.068 | 0.764 ± 0.065 | 0.758 ± 0.08 | 0.726 ± 0.068
1 µM, coculture fibroblast: H6019 | 0.739 ± 0.012 | 0.673 ± 0.015 | 0.652 ± 0.035 | 0.587 ± 0.048 | 0.554 ± 0.053 | 0.546 ± 0.059 | 0.512 ± 0.07 | 0.488 ± 0.065 | 0.468 ± 0.063
1 µM, coculture fibroblast: H6076 | 0.73 ± 0.023 | 0.659 ± 0.077 | 0.68 ± 0.092 | 0.647 ± 0.095 | 0.659 ± 0.11 | 0.649 ± 0.13 | 0.682 ± 0.15 | 0.688 ± 0.15 | 0.699 ± 0.15
1 µM, coculture fibroblast: H6231 | 0.71 ± 0.029 | 0.615 ± 0.03 | 0.663 ± 0.012 | 0.583 ± 0.037 | 0.566 ± 0.032 | 0.554 ± 0.031 | 0.551 ± 0.035 | 0.54 ± 0.04 | 0.533 ± 0.055
1 µM, coculture fibroblast: HADF | 0.788 ± 0.069 | 0.703 ± 0.032 | 0.678 ± 0.034 | 0.655 ± 0.033 | 0.654 ± 0.022 | 0.6827 ± 0.0051 | 0.625 ± 0.018 | 0.621 ± 0.028 | 0.59 ± 0.038
1 µM, coculture fibroblast: HCFa | 0.7521 ± 0.0025 | 0.711 ± 0.014 | 0.679 ± 0.011 | 0.6482 ± 0.0013 | 0.634 ± 0.0065 | 0.654 ± 0.011 | 0.591 ± 0.014 | 0.587 ± 0.022 | 0.535 ± 0.023
1 µM, coculture fibroblast: HCPF | 0.759 ± 0.0026 | 0.704 ± 0.035 | 0.72 ± 0.051 | 0.668 ± 0.062 | 0.647 ± 0.06 | 0.625 ± 0.07 | 0.614 ± 0.074 | 0.606 ± 0.077 | 0.594 ± 0.08
1 µM, coculture fibroblast: HHSteC | 0.797 ± 0.022 | 0.791 ± 0.041 | 0.761 ± 0.04 | 0.725 ± 0.041 | 0.723 ± 0.03 | 0.743 ± 0.041 | 0.681 ± 0.054 | 0.668 ± 0.056 | 0.624 ± 0.054
1 µM, coculture fibroblast: HMF | 0.75 ± 0.0091 | 0.671 ± 0.045 | 0.67 ± 0.054 | 0.631 ± 0.056 | 0.614 ± 0.072 | 0.588 ± 0.071 | 0.608 ± 0.08 | 0.598 ± 0.086 | 0.601 ± 0.096
1 µM, coculture fibroblast: HPFa | 0.8797 ± 0.0042 | 0.838 ± 0.046 | 0.823 ± 0.049 | 0.778 ± 0.061 | 0.775 ± 0.074 | 0.787 ± 0.072 | 0.717 ± 0.08 | 0.696 ± 0.079 | 0.634 ± 0.09
1 µM, coculture fibroblast: HUF | 0.792 ± 0.012 | 0.7056 ± 0.005 | 0.686 ± 0.012 | 0.6226 ± 0.0031 | 0.5748 ± 0.0012 | 0.558 ± 0.011 | 0.535 ± 0.022 | 0.531 ± 0.03 | 0.525 ± 0.036
1 µM, coculture fibroblast: Hs5 | 0.743 ± 0.016 | 0.698 ± 0.0038 | 0.7123 ± 0.0043 | 0.669 ± 0.012 | 0.66 ± 0.018 | 0.63 ± 0.019 | 0.664 ± 0.018 | 0.655 ± 0.026 | 0.666 ± 0.026
1 µM, coculture fibroblast: Hs27A | 0.79 ± 0.021 | 0.719 ± 0.043 | 0.732 ± 0.026 | 0.717 ± 0.03 | 0.715 ± 0.034 | 0.804 ± 0.04 | 0.715 ± 0.048 | 0.728 ± 0.046 | 0.662 ± 0.051
1 µM, coculture fibroblast: Hs343T | 0.7436 ± 0.007 | 0.662 ± 0.047 | 0.668 ± 0.052 | 0.635 ± 0.061 | 0.632 ± 0.072 | 0.606 ± 0.074 | 0.616 ± 0.073 | 0.61 ± 0.077 | 0.611 ± 0.081
1 µM, coculture fibroblast: WS1 | 0.7282 ± 0.0024 | 0.665 ± 0.014 | 0.648 ± 0.031 | 0.583 ± 0.037 | 0.54 ± 0.024 | 0.532 ± 0.017 | 0.515 ± 0.015 | 0.5 ± 0.011 | 0.4983 ± 0.0018

From the supplement of paper PMC6078165
